# From article PMC4133371
# The chains behind the UniProt entries cited, without tags or fusion partners. Residues count along the entry.
# UniProt P09803, residues 734-884: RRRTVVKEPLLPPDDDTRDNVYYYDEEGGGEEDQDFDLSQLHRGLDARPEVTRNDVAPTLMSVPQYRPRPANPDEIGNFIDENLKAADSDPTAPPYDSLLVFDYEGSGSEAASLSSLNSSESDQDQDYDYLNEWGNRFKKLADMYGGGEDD
# These are yes or no findings as the source states them, for the method shown. Binding seen in cells or lysates may run through a third protein. Some entries that bind do so weakly or less than the wild type.
# B1: β-catenin (protein, UniProt B6V8E6 1-781)
# chain: MATQADLMELDMAMEPDRKAAVSHWQQQSYLDSGIHSGATTTAPSLSGKGNPEEEDVDTTQVLYEWEQGFSQSFTQEQVADIDGQYAMTRAQRVRAAMFPETLDEGMQIPSTQFDAAHPTNVQRLAEPSQMLKHAVVNLINYQDDAELATRAIPELTKLLNDEDQVVVNKAAVMVHQLSKKEASRHAIMRSPQMVSAIVRTMQNTNDVETARCTAGTLHNLSHHREGLLAIFKSGGIPALVKMLGSPVDSVLFYAITTLHNLLLHQEGAKMAVRLAGGLQKMVALLNKTNVKFLAITTDCLQILAYGNQESKLIILASGGPQALVNIMRTYTYEKLLWTTSRVLKVLSVCSSNKPAIVEAGGMQALGLHLTDPSQRLVQNCLWTLRNLSDAATKQEGMEGLLGTLVQLLGSDDINVVTCAAGILSNLTCNNYKNKMMVCQVGGIEALVRTVLRAGDREDITEPAICALRHLTSRHQEAEMAQNAVRLHYGLPVVVKLLHPPSHWPLIKATVGLIRNLALCPANHAPLREQGAIPRLVQLLVRAHQDTQRRTSMGGTQQQFVEGVRMEEIVEGCTGALHILARDVHNRIVIRGLNTIPLFVQLLYSPIENIQRVAAGVLCELAQDKEAAEAIEAEGATAPLTELLHSRNEGVATYAAAVLFRMSEDKPQDYKKRLSVELTSSLFRTEPMAWNETADLGLDIGAQGEPLGYRQDDPSYRSFHSGGYGQDALGMDPMMEHEMGGHHPGADYPVDGLPDLGHAQDLMDGLPPGDSNQLAWFDTDL
# Molecular target: DsRed-tagged wild-type E-cadherin cytoplasmic domain (DECT) (UniProt P09803)
# Assay: co-IP; anti-FLAG mAb preabsorbed to protein G-Sepharose; lysates of MDCK stable transfectants (25 mM Tris-HCl pH 7.4, 1% Triton X-100, 2 mM EDTA); immunoblot with anti-β-catenin or anti-plakoglobin
binder,measurement,value
B1,binding,binds
